# Results taken from PubChem BioAssay AID304 (DTP/NCI, 2004).
# The list is a part of this screen's results and no random one: it is rich in T/C values a quarter to a half above the control, in often repeated tests (any T/C) and in doses without a T/C. Further doses and runs are listed elsewhere. T/C gives the treated animals as a percentage of the vehicle group. Some entries give survivors of the animals treated and no T/C: the source files T/C as zero there, which appears to mark a toxic dose or a test without result, not a measured value. Some survivor counts are full or nearly so, which does not show that the dose was tolerated: the source hardly ever lists a survival T/C far under the control, and the zero likely stands for such cases as well. Counts of survivors are from the toxicity check (mostly the fifth day) where no day follows; animals may have died later. Schedules are NCI's codes, read here as Q, the interval in days (D) or hours (H), X, the number of doses. Some entries hold several experiments; their values stand side by side, smallest first. Some structures stand for samples that the source files as different forms (salt, stereo form or complex); doses refer to the form tested. Where survival is the endpoint, the PubChem record calls one and a half times the control and up active, and a quarter to a half above the control has no call in these data; cut-offs in other NCI protocols can differ. Signs of the kind (2×) say how often a value occurs here. Starred links: 1 amine or outer side, 2 acyl side, 3 side chain; linkers in the order of their positions; H or OH if unused. Positions of bridges follow the written chain, without caps; N, C: chain ends. Non-standard residues stand in square brackets, D forms with d. Residues, ends and D or L forms follow the SMILES beside them. Chains are numbered I, II in the order given. Actinocin(9to1) = Cc1c2oc3c(C)ccc(C(=O)[*:1])c3nc-2c(C(=O)[*:2])c(N)c1=O; aThr = C[C@H](O)[C@H](N)C(=O)O; NMeV = CN[C@H](C(=O)O)C(C)C; Sar = CNCC(=O)O
# System: Lymphosarcoma Mecca ip in C3AKF1 mice, survival T/C%
# Experiment: NCI In Vivo Anticancer Drug Screen. Data for tumor model Lymphosarcoma Mecca (intraperitoneal) in C3AKF1 (CHKRF1) mice
# Details: T/C endpoint: survival time, mean or median, higher T/C = longer survival
# Procedure: The antitumor activity of compounds was measured in mice bearing transplantable tumors. Survival or tumor size were measured and the results are expressed as the measurement made in the treated group (T) divided by the measurement made in the vehicle treated control group (C). The tumor model used in this assay is Lymphosarcoma Mecca (intraperitoneal) in C3AKF1 (CHKRF1) mice
# [1] = dose: 1.25 mg/kg/injection, schedule: Q01DX010 (ip), vehicle: saline
# [2] = dose: 2.5 mg/kg/injection, schedule: Q01DX010 (ip), vehicle: saline
# [3] = dose: 5.0 mg/kg/injection, schedule: Q01DX010 (ip), vehicle: saline
# [4] = dose: 0.4 mg/kg/injection, schedule: Q01DX010 (ip), vehicle: other
# [5] = dose: 200.0 mg/kg/injection, schedule: Q01DX010 (ip), vehicle: saline
# [6] = dose: 400.0 mg/kg/injection, schedule: Q01DX010 (ip), vehicle: saline
# [7] = dose: 50.0 mg/kg/injection, schedule: Q01DX010 (ip), vehicle: saline
# [8] = dose: 100.0 mg/kg/injection, schedule: Q01DX010 (ip), vehicle: saline
# [9] = dose: 4.0 mg/kg/injection, schedule: Q01DX010 (ip), vehicle: saline
# [10] = dose: 32.0 mg/kg/injection, schedule: Q01DX010 (ip), vehicle: saline
# [11] = dose: 10.0 mg/kg/injection, schedule: Q01DX010 (ip), vehicle: saline
# [12] = dose: 8.0 mg/kg/injection, schedule: Q01DX010 (ip), vehicle: saline
# [13] = dose: 20.0 mg/kg/injection, schedule: Q01DX010 (ip), vehicle: saline
# [14] = dose: 64.0 mg/kg/injection, schedule: Q01DX010 (ip), vehicle: saline
# [15] = dose: 25.0 mg/kg/injection, schedule: Q01DX010 (sc), vehicle: steroid suspending solution
# [16] = dose: 2.0 mg/kg/injection, schedule: Q01DX010 (ip), vehicle: saline
smiles,measurement,setting,value
Nc1nc2n[nH]nc2c(=O)[nH]1,survivor count,"dose: 25.0 mg/kg/injection, schedule: Q01DX010 (ip), vehicle: alkali diluted with saline",6 of 6
same,survivor count,"dose: 100.0 mg/kg/injection, schedule: Q01DX010 (ip), vehicle: alkali diluted with saline",6 of 6
same,survivor count,"dose: 200.0 mg/kg/injection, schedule: Q01DX010 (ip), vehicle: alkali diluted with saline",5 of 6 and 6 of 6
Oc1cc(CN(CCCl)CCCl)c(O)cc1CN(CCCl)CCCl,T/C,[1],130 % of control
same,T/C,[2],140 % of control
same,T/C,[3],130 % of control
Nc1nc(N)c2nc(CNc3ccc(C(=O)NC(CCC(=O)O)C(=O)O)cc3)cnc2n1 (stereo unspecified),T/C,[4],130 % of control
same,survivor count,[4],6 of 6
O=c1cnn(C2OC(CO)C(O)C2O)c(=O)[nH]1 (stereo unspecified),survivor count,[5],6 of 6
same,survivor count,[6],6 of 6
same,survivor count,"dose: 800.0 mg/kg/injection, schedule: Q01DX010 (ip), vehicle: saline",6 of 6
same,survivor count,"dose: 1600.0 mg/kg/injection, schedule: Q01DX010 (ip), vehicle: saline",6 of 6
CCN(CC)CCCC(C)Nc1c2ccc(Cl)cc2nc2ccc(OC)cc12 (stereo unspecified),survivor count,[5],0 of 6
CN(C)/N=N/c1nc[nH]c1C(N)=O,T/C,[7],133 % of control
same,T/C,[8],133 % of control
same,T/C,[5],144 % of control
COC1C(OC(=O)/C=C/C=C/C=C/C=C/C(=O)O)CCC2(CO2)C1C1(C)OC1CC=C(C)C (stereo unspecified),survivor count,[6],0 of 6
Nc1nc(SCc2ccccc2)c2[nH]cnc2n1,T/C,[9],125 % of control
same,survivor count,[10],6 of 6
COc1cc(-c2ccc(Nc3ccccc3C(=O)O)c(OC)c2)ccc1N,T/C,"dose: 40.0 mg/kg/injection, schedule: Q01DX010 (ip), vehicle: saline",125 % of control
same,T/C,"dose: 80.0 mg/kg/injection, schedule: Q01DX010 (ip), vehicle: saline",130 % of control
CCOC(N)=O,survivor count,"dose: 1000.0 mg/kg/injection, schedule: Q01DX010 (ip), vehicle: saline",4 of 6 and 6 of 6
O=c1[nH]cc(F)c(=O)[nH]1,T/C,[11],130 % of control
NC(Cc1ccc(N(CCCl)CCCl)cc1)C(=O)O (stereo unspecified),T/C,[2],135 and 145 % of control
same,T/C,[3],130 % of control
same,T/C,[12],125 % of control
same,survivor count,[13],6 of 6
O[C@H](CN1CC1)[C@@H](O)CN1CC1,T/C,"dose: 500.0 micrograms/kg/injection, schedule: Q01DX010 (ip), vehicle: saline",125 % of control
O=C(Nc1ccc(C2=NCCN2)cc1)c1cccc(C(=O)Nc2ccc(C3=NCCN3)cc2)c1,T/C,[12],140 % of control
same,T/C,[10],134 and 145 % of control
same,T/C,[14],131 % of control
N#[N+]c1cnc([O-])[nH]c1=O,T/C,[1],128 % of control
same,T/C,[2],128 % of control
same,T/C,[11],133 % of control
CN(C)[C@@H]1C(=O)C(C(N)=O)=C(O)[C@@]2(O)C(=O)C3=C(O)c4c(O)cccc4C[C@H]3C[C@@H]12,survivor count,"dose: 60.0 mg/kg/injection, schedule: Q01DX010 (ip), vehicle: saline",6 of 6
C1CN1c1nc(N2CC2)nc(N2CC2)n1,T/C,"dose: 0.13 mg/kg/injection, schedule: Q01DX010 (ip), vehicle: saline",144 % of control
same,T/C,"dose: 0.25 mg/kg/injection, schedule: Q01DX010 (ip), vehicle: saline",125 % of control
same,T/C,"dose: 0.5 mg/kg/injection, schedule: Q01DX010 (ip), vehicle: saline",145 % of control
same,survivor count,"dose: 1.0 mg/kg/injection, schedule: Q01DX010 (ip), vehicle: saline",6 of 6
CS(=O)(=O)OCCC(=O)N1CCN(C(=O)CCOS(C)(=O)=O)CC1,T/C,[7],125 and 130 % of control
same,T/C,[8],140 % of control
same,survivor count,[5],6 of 6
O=C(Nc1ccc(C2=NCCCN2)cc1)c1ccc(C(=O)Nc2ccc(C3=NCCCN3)cc2)cc1,T/C,[9],127 % of control (2×)
same,T/C,[12],144 % of control
S=P(N1CCOCC1)(N1CC1)N1CC1,survivor count,[2],6 of 6
same,survivor count,[11],6 of 6
same,survivor count,[13],4 of 6 and 6 of 6
OC(CBr)C(O)C(O)C(O)CBr (stereo unspecified),T/C,[5],140 % of control
c1ccc(CNc2ncnc3[nH]ncc23)cc1,T/C,[12],125 % of control
same,survivor count,[10],6 of 6
same,survivor count,[14],6 of 6
CCCSc1ncnc2nc[nH]c12,survivor count,"dose: 250.0 mg/kg/injection, schedule: Q01DX010 (ip), vehicle: saline",5 of 6
C[C@]12C=CC(=O)C=C1CC[C@@H]1[C@@H]2[C@@H](O)C[C@@]2(C)[C@H]1CC[C@]2(O)C(=O)CO,T/C,"dose: 12.5 mg/kg/injection, schedule: Q01DX010 (sc), vehicle: steroid suspending solution",135 % of control
same,T/C,[15],125 % of control
same,survivor count,"dose: 50.0 mg/kg/injection, schedule: Q01DX010 (sc), vehicle: steroid suspending solution",6 of 6
same,survivor count,"dose: 100.0 mg/kg/injection, schedule: Q01DX010 (sc), vehicle: steroid suspending solution",6 of 6
O=[n+]1c2c(n([O-])c3ccccc31)-c1cccc3cccc-2c13,survivor count,"dose: 6.25 mg/kg/injection, schedule: Q01DX010 (ip), vehicle: saline",5 of 6
same,survivor count,"dose: 25.0 mg/kg/injection, schedule: Q01DX010 (ip), vehicle: saline",5 of 6
same,survivor count,[7],6 of 6
same,survivor count,[8],6 of 6
same,survivor count,[5],6 of 6
CCOC(=O)NP(=O)(N1CC1)N1CC1,T/C,[11],144 % of control
Nc1nc(=S)c2ncn(C3OC(CO)C(O)C3O)c2[nH]1 (stereo unspecified),T/C,[16],135 % of control
O=C(Nc1ccc(NC2=NCCN2)cc1)c1ccc(C(=O)Nc2ccc(NC3=NCCN3)cc2)cc1,T/C,[16],130 and 150 % of control
same,survivor count,[16],6 of 6
same,T/C,[9],"96, 110, 116, 140 % of control"
same,T/C,[12],"103, 140, 155 % of control"
same,survivor count,[12],6 of 6
same,T/C,"dose: 16.0 mg/kg/injection, schedule: Q01DX010 (ip), vehicle: saline","89, 104, 130, 140 % of control"
COC(=O)[C@@H]1c2cc3c(c(O)c2[C@@H](OC2OC(C)C(OC)C(C)(OC)C2OC)C[C@]1(C)O)C(=O)c1c(O)cc2c(c1C3=O)O[C@H]1O[C@]2(C)[C@H](O)[C@@H](N(C)C)[C@@H]1O (stereo partly specified),survivor count,"dose: 1000.0 micrograms/kg/injection, schedule: Q01DX010 (ip), vehicle: saline",5 of 6 and 6 of 6
O=NN(CCCl)C(=O)NCCCl,survivor count,[7],6 of 6
"Cc1c2oc3c(C)ccc(C(=O)N[C@@H]4C(=O)N[C@H](C(C)C)C(=O)N5CCC[C@H]5C(=O)N(C)CC(=O)N(C)[C@@H](C(C)C)C(=O)O[C@H]4C)c3nc-2c(C(=O)N[C@@H]2C(=O)N[C@H](C(C)C)C(=O)N3CCC[C@H]3C(=O)N(C)CC(=O)N(C)[C@@H](C(C)C)C(=O)O[C@H]2C)c(N)c1=O (I: [aThr][dV]P[Sar][NMeV] / II: [aThr][dV]P[Sar][NMeV]; ester I:1-I:C, II:1-II:C; linker I:N-II:N via Actinocin(9to1))",survivor count,"dose: 13.0 micrograms/kg/injection, schedule: Q01DX010 (ip), vehicle: acid diluted with saline",6 of 6
same,survivor count,"dose: 25.0 micrograms/kg/injection, schedule: Q01DX010 (ip), vehicle: acid diluted with saline",6 of 6
same,T/C,"dose: 50.0 micrograms/kg/injection, schedule: Q01DX010 (ip), vehicle: acid diluted with saline",145 % of control
same,survivor count,"dose: 100.0 micrograms/kg/injection, schedule: Q01DX010 (ip), vehicle: acid diluted with saline",6 of 6
CC/C(=C(/CC)c1ccc(O)cc1)c1ccc(O)cc1,survivor count,[15],6 of 6
